Results taken from publication PMC12794201.
These are yes or no findings as the source states them, for the method shown. In cells and extracts the contact can be indirect. Some entries that bind do so weakly or less than the wild type. Tags and fused reporters may be left off the sequences shown.

Protein sequences, listed by entry. Tags and fused reporters are not part of them.
UniProt Q9NQT8: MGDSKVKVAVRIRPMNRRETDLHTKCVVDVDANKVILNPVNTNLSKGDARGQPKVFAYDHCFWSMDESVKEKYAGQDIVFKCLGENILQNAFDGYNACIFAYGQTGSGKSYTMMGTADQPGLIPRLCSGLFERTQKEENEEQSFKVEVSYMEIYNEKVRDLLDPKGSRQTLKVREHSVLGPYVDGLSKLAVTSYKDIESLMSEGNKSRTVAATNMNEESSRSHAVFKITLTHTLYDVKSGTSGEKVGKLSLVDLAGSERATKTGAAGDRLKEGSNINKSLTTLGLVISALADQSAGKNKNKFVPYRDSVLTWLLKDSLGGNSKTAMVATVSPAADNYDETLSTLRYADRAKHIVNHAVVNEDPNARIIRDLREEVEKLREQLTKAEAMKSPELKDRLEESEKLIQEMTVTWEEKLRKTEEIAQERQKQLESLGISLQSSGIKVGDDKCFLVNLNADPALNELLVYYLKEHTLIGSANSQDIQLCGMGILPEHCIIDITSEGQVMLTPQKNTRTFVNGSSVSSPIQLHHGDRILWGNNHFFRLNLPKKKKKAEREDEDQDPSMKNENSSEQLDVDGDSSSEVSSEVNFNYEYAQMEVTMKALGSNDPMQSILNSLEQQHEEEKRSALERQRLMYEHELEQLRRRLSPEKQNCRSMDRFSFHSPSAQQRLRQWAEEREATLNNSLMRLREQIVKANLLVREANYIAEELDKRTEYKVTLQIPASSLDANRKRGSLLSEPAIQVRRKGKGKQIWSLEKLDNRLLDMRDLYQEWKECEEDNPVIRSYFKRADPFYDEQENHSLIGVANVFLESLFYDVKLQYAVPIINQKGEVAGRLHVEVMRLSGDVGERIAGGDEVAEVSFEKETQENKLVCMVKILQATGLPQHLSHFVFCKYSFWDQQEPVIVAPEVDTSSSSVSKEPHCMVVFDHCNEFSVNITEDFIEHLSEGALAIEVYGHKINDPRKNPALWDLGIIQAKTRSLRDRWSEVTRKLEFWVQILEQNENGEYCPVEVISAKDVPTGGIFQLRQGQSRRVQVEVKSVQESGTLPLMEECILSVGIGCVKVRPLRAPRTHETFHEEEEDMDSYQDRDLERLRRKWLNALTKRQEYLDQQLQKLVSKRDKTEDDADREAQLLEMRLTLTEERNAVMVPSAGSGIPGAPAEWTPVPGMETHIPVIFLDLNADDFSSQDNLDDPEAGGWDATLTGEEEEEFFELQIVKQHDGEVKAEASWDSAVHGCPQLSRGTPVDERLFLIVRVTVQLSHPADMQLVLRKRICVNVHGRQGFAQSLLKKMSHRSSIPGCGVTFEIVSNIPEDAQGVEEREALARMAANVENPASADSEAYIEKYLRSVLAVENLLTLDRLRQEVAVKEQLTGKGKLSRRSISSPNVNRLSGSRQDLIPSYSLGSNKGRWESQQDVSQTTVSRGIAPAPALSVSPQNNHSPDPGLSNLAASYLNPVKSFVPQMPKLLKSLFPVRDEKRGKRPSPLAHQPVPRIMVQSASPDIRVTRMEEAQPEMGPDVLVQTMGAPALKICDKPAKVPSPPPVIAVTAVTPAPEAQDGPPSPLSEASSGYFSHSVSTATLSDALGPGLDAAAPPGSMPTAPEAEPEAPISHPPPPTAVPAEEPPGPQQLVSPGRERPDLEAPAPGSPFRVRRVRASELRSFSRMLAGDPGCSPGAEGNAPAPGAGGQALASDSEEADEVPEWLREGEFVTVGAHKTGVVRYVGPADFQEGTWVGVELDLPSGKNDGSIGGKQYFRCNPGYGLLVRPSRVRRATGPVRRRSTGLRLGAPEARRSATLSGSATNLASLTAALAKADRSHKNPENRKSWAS

Biological target: T1, human perilipin 5 with HA (hPLIN5-HA) (human) (UniProt Q00G26)
T1 sequence: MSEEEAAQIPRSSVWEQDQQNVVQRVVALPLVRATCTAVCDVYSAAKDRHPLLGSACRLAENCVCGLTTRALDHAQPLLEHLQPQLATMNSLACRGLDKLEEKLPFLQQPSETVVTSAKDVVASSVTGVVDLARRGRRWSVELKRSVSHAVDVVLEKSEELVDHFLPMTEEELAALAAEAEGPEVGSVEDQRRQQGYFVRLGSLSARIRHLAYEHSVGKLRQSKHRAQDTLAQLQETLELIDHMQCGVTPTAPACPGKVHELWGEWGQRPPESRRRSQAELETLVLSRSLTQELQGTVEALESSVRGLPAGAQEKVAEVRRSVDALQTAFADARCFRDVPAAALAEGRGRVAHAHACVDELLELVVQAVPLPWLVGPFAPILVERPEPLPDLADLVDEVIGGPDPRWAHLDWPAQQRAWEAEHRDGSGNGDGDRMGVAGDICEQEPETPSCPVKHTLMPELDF
Assay: co-IP; NRCMs transfected with hKIF13B-GFP and hPLIN5-HA; IgG control named in the legend; which protein was precipitated is not told

binding: binds
Substance: human kinesin family member 13B with GFP (hKIF13B-GFP) (from UniProt Q9NQT8 1-1826)
